In US6107305A, “Use of pyrazolo [3,4-b] pyridine as cyclin dependent kinase inhibitors” (Bristol-Myers Squibb Company, priority 1998, dated 2000):
Some results were stated once for a whole list of compounds, not compound by compound.

Chains of the proteins cited; added tags and fusions are not shown.
UniProt P11802, whole entry, species assumed: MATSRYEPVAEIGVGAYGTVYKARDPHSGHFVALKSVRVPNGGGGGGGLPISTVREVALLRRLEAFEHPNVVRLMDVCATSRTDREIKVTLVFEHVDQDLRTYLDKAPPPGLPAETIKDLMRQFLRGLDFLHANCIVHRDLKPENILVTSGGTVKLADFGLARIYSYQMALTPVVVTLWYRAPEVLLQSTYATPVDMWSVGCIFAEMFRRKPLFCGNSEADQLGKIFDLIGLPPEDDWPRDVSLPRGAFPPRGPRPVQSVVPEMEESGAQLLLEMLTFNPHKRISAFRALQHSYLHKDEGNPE
UniProt P06493, whole entry, species assumed: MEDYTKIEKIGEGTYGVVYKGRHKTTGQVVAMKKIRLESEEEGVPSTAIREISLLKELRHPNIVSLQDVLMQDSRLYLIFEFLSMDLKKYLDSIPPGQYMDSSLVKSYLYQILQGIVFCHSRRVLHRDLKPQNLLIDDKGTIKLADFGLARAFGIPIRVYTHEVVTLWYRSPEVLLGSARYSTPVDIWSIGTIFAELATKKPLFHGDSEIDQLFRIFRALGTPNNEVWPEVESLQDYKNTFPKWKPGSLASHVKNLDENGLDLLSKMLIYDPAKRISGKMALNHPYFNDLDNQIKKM

Assays:
Assay type in all cases: biochemical
cdk4/cyclin D1 kinase = target: T1, cdk4/cyclin D1 kinase (Homo sapiens, UniProt P11802); test: cdk 4/cyclin D1 Kinase Activity; settings: 32P incorporation into retinoblastoma protein; 30° C., 1 hour
T1 construct: GST (N); made in house; cyclin D1: bacteria

cdc2/cyclin B1 kinase = target: T2, cdc2/cyclin B1 kinase (Homo sapiens, UniProt P06493); test: cdc2/cyclin B1 Kinase Assay; settings: 32P incorporation into histone HI; 30° C., 30 minutes
T2 construct: GST (N); made in house

cdk2/cyclin E kinase = target: T3, cdk2/cyclin E kinase (Homo sapiens, UniProt P24941); test: cdk2/cyclin E Kinase Assay; settings: 32P incorporation into retinoblastoma protein; 30° C., 30 minutes
T3 construct: GST (N); made in house

Measured: IC50

CCCCOc1c(C(=O)c2c(F)c(F)c(C)c(F)c2F)cnc2[nH]ncc12 [Example 2, (4-Butoxy-1H-pyrazolo[3,4-b]pyridin-5-yl)(2,3,5,6-tetrafluoro-4-methylphenyl)methanone]
< 50 µM: all assays above

CCCCOc1c(C(=O)NCC(C)C)cnc2[nH]ncc12 [Example 3, 4-Butoxy-N-(2-methylpropyl)-1H-pyrazolo[3,4-b]pyridine5-carboxamide]
< 50 µM: all assays above

O=C(c1ccccc1)c1cnc2[nH]ncc2c1OCC1CCCCC1 [Example 4, [4-(Cyclohexylmethoxy)-1H-pyrazolo[3,4-b]pyridin-5-yl]phenylmethanone]
< 50 µM: all assays above

O=C(c1ccccc1)c1cnc2[nH]ncc2c1OCc1ccccc1 [Example 5, [4-(Phenylmethoxy)-1H-pyrazolo[3,4-b]pyridin-5-yl]phenylmethanone]
< 50 µM: all assays above

CCCCSc1c(C(=O)c2ccccc2)cnc2[nH]ncc12 [Example 6, [4-(Butylthio)-1H-pyrazolo[3,4-b]pyridin-5-yl]phenylmethanone]
< 50 µM: all assays above

CCCC[S+]([O-])c1c(C(=O)c2ccccc2)cnc2[nH]ncc12 (stereo not drawn) [Example 7, [4-(Butylsulfinyl)-1H-pyrazolo[3,4-b]pyridin-5-yl]phenylmethanone]
< 50 µM: all assays above

CCCCS(=O)(=O)c1c(C(=O)c2ccccc2)cnc2[nH]ncc12 [Example 8, [4(Butylsulfonyl)-1H-pyrazolo[3,4-b]pyridin-5-yl]phenylmethanone]
< 50 µM: all assays above
